Reference: article PMC10089660
Results are given in words; binding and its absence hold for the method and conditions named. In cells and extracts the contact can be indirect. Some results given as binding are weak or reduced against the parent protein; the word gives no strength.

Protein sequences, listed by entry. Tags and fused reporters are not part of them. Residues count along the entry.
UniProt P27169: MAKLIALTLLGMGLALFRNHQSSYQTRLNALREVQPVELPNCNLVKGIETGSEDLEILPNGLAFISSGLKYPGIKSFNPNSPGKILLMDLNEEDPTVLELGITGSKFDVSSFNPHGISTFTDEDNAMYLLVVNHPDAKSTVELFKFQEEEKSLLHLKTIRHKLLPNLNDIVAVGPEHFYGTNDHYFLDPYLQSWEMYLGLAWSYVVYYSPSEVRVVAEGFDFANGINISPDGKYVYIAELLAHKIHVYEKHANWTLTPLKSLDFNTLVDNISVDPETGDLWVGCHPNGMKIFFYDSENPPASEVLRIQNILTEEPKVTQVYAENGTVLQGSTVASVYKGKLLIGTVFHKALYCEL
UniProt Q15166: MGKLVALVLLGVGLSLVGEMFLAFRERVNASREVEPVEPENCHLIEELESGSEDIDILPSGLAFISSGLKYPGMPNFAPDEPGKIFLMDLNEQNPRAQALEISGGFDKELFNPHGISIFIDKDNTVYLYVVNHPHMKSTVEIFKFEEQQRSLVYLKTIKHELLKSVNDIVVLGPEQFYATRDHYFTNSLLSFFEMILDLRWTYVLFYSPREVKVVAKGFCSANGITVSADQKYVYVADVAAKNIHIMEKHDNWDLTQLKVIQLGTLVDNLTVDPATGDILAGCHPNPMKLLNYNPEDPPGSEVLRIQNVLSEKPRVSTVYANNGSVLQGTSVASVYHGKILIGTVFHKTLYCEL
UniProt P04275, residues 764-2813: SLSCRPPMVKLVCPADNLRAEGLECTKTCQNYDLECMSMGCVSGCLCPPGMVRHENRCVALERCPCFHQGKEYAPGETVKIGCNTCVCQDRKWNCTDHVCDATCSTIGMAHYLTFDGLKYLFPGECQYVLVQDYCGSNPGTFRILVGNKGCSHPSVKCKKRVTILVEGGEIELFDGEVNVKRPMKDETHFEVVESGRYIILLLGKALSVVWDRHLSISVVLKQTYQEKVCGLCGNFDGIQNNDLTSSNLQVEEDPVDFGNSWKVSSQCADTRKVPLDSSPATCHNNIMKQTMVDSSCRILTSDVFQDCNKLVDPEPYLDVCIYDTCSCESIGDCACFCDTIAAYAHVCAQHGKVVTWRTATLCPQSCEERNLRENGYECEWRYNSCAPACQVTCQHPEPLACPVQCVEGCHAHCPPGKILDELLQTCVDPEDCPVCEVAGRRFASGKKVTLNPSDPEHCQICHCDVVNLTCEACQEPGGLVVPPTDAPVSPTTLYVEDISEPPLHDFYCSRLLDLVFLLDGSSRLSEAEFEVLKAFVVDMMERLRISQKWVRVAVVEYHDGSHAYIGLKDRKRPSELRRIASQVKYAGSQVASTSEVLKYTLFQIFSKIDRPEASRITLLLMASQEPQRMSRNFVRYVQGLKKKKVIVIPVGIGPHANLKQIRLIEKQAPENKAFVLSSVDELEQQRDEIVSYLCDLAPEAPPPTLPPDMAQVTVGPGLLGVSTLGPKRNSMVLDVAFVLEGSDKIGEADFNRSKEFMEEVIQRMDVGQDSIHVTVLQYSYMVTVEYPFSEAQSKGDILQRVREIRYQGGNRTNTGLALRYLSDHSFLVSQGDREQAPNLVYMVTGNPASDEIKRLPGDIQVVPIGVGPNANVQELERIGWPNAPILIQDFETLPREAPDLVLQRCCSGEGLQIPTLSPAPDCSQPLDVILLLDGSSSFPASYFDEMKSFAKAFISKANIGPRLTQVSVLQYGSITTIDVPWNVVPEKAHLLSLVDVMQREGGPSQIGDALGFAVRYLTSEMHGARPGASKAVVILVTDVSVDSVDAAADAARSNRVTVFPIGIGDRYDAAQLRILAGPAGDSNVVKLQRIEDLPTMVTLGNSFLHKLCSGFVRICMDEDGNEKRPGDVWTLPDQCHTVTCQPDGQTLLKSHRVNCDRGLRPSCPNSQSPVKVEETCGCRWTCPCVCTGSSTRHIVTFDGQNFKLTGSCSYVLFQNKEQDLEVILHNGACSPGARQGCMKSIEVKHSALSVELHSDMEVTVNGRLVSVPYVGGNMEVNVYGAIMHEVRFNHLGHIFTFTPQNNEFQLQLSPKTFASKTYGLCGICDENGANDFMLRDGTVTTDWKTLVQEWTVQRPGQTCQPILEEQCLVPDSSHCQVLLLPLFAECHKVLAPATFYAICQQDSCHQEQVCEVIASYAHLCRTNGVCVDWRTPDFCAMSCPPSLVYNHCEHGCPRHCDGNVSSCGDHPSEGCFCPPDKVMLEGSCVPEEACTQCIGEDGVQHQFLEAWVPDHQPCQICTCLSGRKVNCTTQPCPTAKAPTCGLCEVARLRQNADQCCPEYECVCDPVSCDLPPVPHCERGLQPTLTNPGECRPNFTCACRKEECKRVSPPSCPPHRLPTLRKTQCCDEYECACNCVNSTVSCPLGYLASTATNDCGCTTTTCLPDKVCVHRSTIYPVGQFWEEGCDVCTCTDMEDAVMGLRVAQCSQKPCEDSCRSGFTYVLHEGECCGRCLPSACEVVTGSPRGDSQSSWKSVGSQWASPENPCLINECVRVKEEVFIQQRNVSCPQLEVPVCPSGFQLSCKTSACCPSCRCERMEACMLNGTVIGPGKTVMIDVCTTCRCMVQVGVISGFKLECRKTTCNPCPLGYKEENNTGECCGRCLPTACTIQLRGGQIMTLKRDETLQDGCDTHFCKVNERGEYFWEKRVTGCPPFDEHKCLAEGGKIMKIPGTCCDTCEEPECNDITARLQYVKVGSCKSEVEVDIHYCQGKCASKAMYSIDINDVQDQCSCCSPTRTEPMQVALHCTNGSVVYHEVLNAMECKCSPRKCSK
UniProt P05164, residues 49-745: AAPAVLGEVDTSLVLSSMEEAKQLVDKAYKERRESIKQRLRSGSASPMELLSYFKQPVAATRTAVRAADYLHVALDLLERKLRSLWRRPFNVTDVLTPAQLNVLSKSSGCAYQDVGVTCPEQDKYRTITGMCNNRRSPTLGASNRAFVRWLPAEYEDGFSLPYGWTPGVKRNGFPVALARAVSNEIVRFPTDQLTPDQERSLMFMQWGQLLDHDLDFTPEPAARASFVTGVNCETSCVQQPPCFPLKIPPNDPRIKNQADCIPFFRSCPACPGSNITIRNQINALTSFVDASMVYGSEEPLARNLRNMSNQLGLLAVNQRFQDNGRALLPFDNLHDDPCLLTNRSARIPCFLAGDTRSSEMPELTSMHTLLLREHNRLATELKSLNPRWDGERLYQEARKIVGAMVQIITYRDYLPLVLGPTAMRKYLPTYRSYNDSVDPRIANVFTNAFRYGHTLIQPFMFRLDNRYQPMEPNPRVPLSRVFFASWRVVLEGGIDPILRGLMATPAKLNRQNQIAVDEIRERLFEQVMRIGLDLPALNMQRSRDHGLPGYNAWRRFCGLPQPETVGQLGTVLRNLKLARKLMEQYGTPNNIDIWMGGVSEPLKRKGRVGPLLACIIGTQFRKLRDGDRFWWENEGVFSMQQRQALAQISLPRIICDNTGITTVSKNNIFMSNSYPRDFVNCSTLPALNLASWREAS

Each substance was assayed against paraoxonase 1 (PON1) (human (endogenous in human cancer cell lines)) (UniProt P27169) (assay: cross-linking + co-IP; cells cross-linked with 1 mM EGS, 45 min, 4 °C; cross-linking-mediated coimmunoprecipitation with PON1 antibody; multiplexed capture beads for PON3, VWF and MPO, detection with biotinylated PON1 antibody and streptavidin-phycoerythrin (Bio-Plex 3D); whole cell lysates, golgi fractions and secretomes of parental, EGFR-TKI-treated cells and DR clones; also after SREBP2 RNAi).

Row | binding | Substance
1 | binds | paraoxonase 3 (PON3) (from UniProt Q15166 1-354)
2 | binds | von Willebrand factor (VWF) (from UniProt P04275 764-2813)
3 | binds | myeloperoxidase (MPO) (from UniProt P05164 49-745)
